PubChem BioAssay AID1259254, NCATS – 2017

Screen: 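Gene knock-downs that lead to re-replication, shown by excess G2 DNA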 (primary screen)
Cells: human HCT116 colorectal cancer cells
Reagent: single siRNA against human genes
Timing: 3 days
Detection: 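Imaged Hoechst DNA stain sorts each cell into a cycle phase by DNA amount; per plate, G2 fraction set to 0% for non-targeting and 100% for GMNN siRNA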
Reading the numbers: G2 robust z-score: higher = more G2 cells, more excess DNA replication
Call rule: 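Active siRNAs have a G2 robust z of 5 or more median absolute deviations over the median, which in these data means about 38% or higher of GMNN control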
This is an unselected part of about 59,000 reagents. Of all reagents, about 1,550 (2.6%) are marked active. 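G2 share is only a proxy for re-replication; each gene was hit by three separate siRNAs, and active genes were retested.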 The numbers tell different reagents against one gene apart. Further read-outs or replicates are left out here. Not given: the amount of reagent.

| gene | reagent | G2 robust z-score | call |
| --- | --- | --- | --- |
| PARP3 (GeneID 10039) | 1 | 1.21 | inactive |
| PARP3 (GeneID 10039) | 2 | 1.22 | inactive |
| PARP3 (GeneID 10039) | 3 | -1.56 | inactive |
| CD109 (GeneID 135228) | 1 | -0.949 | inactive |
| CD109 (GeneID 135228) | 2 | 0.197 | inactive |
| CD109 (GeneID 135228) | 3 | -0.297 | inactive |
| CLDN11 (GeneID 5010) | 1 | -0.638 | inactive |
| CLDN11 (GeneID 5010) | 2 | -0.414 | inactive |
| CLDN11 (GeneID 5010) | 3 | 1.14 | inactive |
| SFXN3 (GeneID 81855) | 1 | -0.705 | inactive |
| SFXN3 (GeneID 81855) | 2 | 0.168 | inactive |
| SFXN3 (GeneID 81855) | 3 | 1.53 | inactive |
| ENHO (GeneID 375704) | 1 | -0.122 | inactive |
| ENHO (GeneID 375704) | 2 | 1.57 | inactive |
| ENHO (GeneID 375704) | 3 | 0.753 | inactive |
| BAZ2B-AS1 (GeneID 643072) | 1 | -0.105 | inactive |
| BAZ2B-AS1 (GeneID 643072) | 2 | -0.943 | inactive |
| BAZ2B-AS1 (GeneID 643072) | 3 | -1.02 | inactive |
| CCT6A (GeneID 908) | 1 | 5.85 | active |
| CCT6A (GeneID 908) | 2 | 0.00413 | inactive |
| CCT6A (GeneID 908) | 3 | 4.36 | inactive |
| SLC27A4 (GeneID 10999) | 1 | -0.39 | inactive |
| SLC27A4 (GeneID 10999) | 2 | 0.143 | inactive |
| SLC27A4 (GeneID 10999) | 3 | -0.43 | inactive |
| LCK (GeneID 3932) | 1 | -0.772 | inactive |
| LCK (GeneID 3932) | 2 | -0.516 | inactive |
| LCK (GeneID 3932) | 3 | -0.896 | inactive |
| ANHX (GeneID 647589) | 1 | -0.113 | inactive |
| ANHX (GeneID 647589) | 2 | -0.282 | inactive |
| ANHX (GeneID 647589) | 3 | -0.0504 | inactive |
| ERCC3 (GeneID 2071) | 1 | -0.161 | inactive |
| ERCC3 (GeneID 2071) | 2 | -1.2 | inactive |
| ERCC3 (GeneID 2071) | 3 | 0.776 | inactive |
| TTLL7 (GeneID 79739) | 1 | -1.24 | inactive |
| TTLL7 (GeneID 79739) | 2 | 2.79 | inactive |
| TTLL7 (GeneID 79739) | 3 | -0.417 | inactive |
| SPMAP2 (GeneID 51298) | 1 | -0.835 | inactive |
| SPMAP2 (GeneID 51298) | 2 | 0.171 | inactive |
| SPMAP2 (GeneID 51298) | 3 | 4.34 | inactive |
| DUSP23 (GeneID 54935) | 1 | -0.762 | inactive |
| DUSP23 (GeneID 54935) | 2 | -1.33 | inactive |
| DUSP23 (GeneID 54935) | 3 | 2.1 | inactive |
| PSTPIP1 (GeneID 9051) | 1 | 1.39 | inactive |
| PSTPIP1 (GeneID 9051) | 2 | 0.732 | inactive |
| PSTPIP1 (GeneID 9051) | 3 | -0.324 | inactive |
| CERS5 (GeneID 91012) | 1 | 0.0115 | inactive |
| CERS5 (GeneID 91012) | 2 | -0.44 | inactive |
| CERS5 (GeneID 91012) | 3 | -0.779 | inactive |
| SPATS2L (GeneID 26010) | 1 | 2.92 | inactive |
| SPATS2L (GeneID 26010) | 2 | -0.141 | inactive |
| SPATS2L (GeneID 26010) | 3 | 1.02 | inactive |
| USP5 (GeneID 8078) | 1 | -1.64 | inactive |
| USP5 (GeneID 8078) | 2 | -0.878 | inactive |
| USP5 (GeneID 8078) | 3 | -0.282 | inactive |
| SPACDR (GeneID 402573) | 1 | 7.99 | active |
| SPACDR (GeneID 402573) | 2 | -0.536 | inactive |
| SPACDR (GeneID 402573) | 3 | 0.713 | inactive |
| SSX3 (GeneID 10214) | 1 | 0.28 | inactive |
| SSX3 (GeneID 10214) | 2 | -0.401 | inactive |
| SSX3 (GeneID 10214) | 3 | -1.02 | inactive |
| NFYC (GeneID 4802) | 1 | -0.194 | inactive |
| NFYC (GeneID 4802) | 2 | 2.35 | inactive |
| NFYC (GeneID 4802) | 3 | -0.582 | inactive |
| MGAM2 (GeneID 93432) | 1 | 0.613 | inactive |
| MGAM2 (GeneID 93432) | 2 | -0.343 | inactive |
| MGAM2 (GeneID 93432) | 3 | -0.403 | inactive |
| ZAR1 (GeneID 326340) | 1 | -0.779 | inactive |
| ZAR1 (GeneID 326340) | 2 | 0.331 | inactive |
| ZAR1 (GeneID 326340) | 3 | 0.0971 | inactive |

Hits, among the entries above:
| gene | reagent | G2 robust z-score | call |
| --- | --- | --- | --- |
| CCT6A (GeneID 908) | 1 | 5.85 | active |
| SPACDR (GeneID 402573) | 1 | 7.99 | active |
